PubChem BioAssay AID493246 | Drosophila RNAi Screening Center – 2011
Test: 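Genome-wide search for dsRNAs that reduce cell number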 (primary screen). Cell system: Drosophila Kc and S2R+ cells. Knock-down reagent: long dsRNA against Drosophila genes. Measurement: 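Cell number per well after knock-down, printed as raw plate values; calls were based on per-plate z-scores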. Direction: Kc cell number and S2R+ cell number: higher = more cells remaining. Active means: 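Counted as a hit if cell number falls by a z-score of at least 3 within its plate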.
In all, the deposit lists about 21,000 reagents; below is a random part of those with a known target gene and a result. Of all reagents, 429 (2%) got an active call. 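Values are raw and not normalised between plates; calls rest on per-plate z-scores that were not deposited.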 Entries without a mark were called inactive. Reagents against one gene are numbered here. Not given: the amount of reagent, the time to read-out.

What is on record for CG9498?
Kc cell number, rep 1: 1.67e6; Kc cell number, rep 2: 1.60e6; S2R+ cell number, rep 1: 1.20e6; S2R+ cell number, rep 2: 1.45e6

What did the screen give for olf186-M?
Kc cell number, rep 1: 1.50e6; Kc cell number, rep 2: 1.52e6; S2R+ cell number, rep 1: 1.17e6; S2R+ cell number, rep 2: 1.24e6

With Cpr49Ad (Cuticular protein 49Ad), how do the results read?
Kc cell number, rep 1: 1.56e6; Kc cell number, rep 2: 1.56e6; S2R+ cell number, rep 1: 1.19e6; S2R+ cell number, rep 2: 1.33e6

For CG12343, what does the deposit list?
Kc cell number, rep 1: 1.66e6; Kc cell number, rep 2: 1.70e6; S2R+ cell number, rep 1: 1.22e6; S2R+ cell number, rep 2: 1.39e6

How did the screen score PyK (Pyruvate kinase)?
Kc cell number, rep 1: 1.07e6; Kc cell number, rep 2: 1.15e6; S2R+ cell number, rep 1: 1.05e6; S2R+ cell number, rep 2: 1.14e6

For Osi10b (Osiris 10b), what was measured?
Kc cell number, rep 1: 1.58e6; Kc cell number, rep 2: 1.83e6; S2R+ cell number, rep 1: 1.21e6; S2R+ cell number, rep 2: 1.30e6

Which result is listed for CG7294?
Kc cell number, rep 1: 1.57e6; Kc cell number, rep 2: 1.56e6; S2R+ cell number, rep 1: 1.11e6; S2R+ cell number, rep 2: 1.26e6

With Uba5 (Ubiquitin-like activating enzyme 5), what does the deposit list?
Kc cell number, rep 1: 1.54e6; Kc cell number, rep 2: 1.52e6; S2R+ cell number, rep 1: 1.01e6; S2R+ cell number, rep 2: 1.10e6

For Acsx2 (Acyl-CoA synthetase X2), what does the deposit list?
Kc cell number, rep 1: 1.21e6; Kc cell number, rep 2: 1.23e6; S2R+ cell number, rep 1: 1.09e6; S2R+ cell number, rep 2: 1.16e6

What is on record for Rpn11 (Regulatory particle non-ATPase 11)?
Kc cell number, rep 1: 8.83e5 (active); Kc cell number, rep 2: 8.97e5; S2R+ cell number, rep 1: 6.95e5; S2R+ cell number, rep 2: 7.56e5

With CG15729 (retired record), what was measured?
Kc cell number, rep 1: 1.48e6; Kc cell number, rep 2: 1.48e6; S2R+ cell number, rep 1: 9.95e5; S2R+ cell number, rep 2: 1.17e6

Laid out differently: entries from further up
{"gene": "CG9498", "dsRNA no.": 1, "Kc cell number, rep 1": 1.67e6, "Kc cell number, rep 2": 1.60e6, "S2R+ cell number, rep 1": 1.20e6, "S2R+ cell number, rep 2": 1.45e6}
{"gene": "olf186-M", "dsRNA no.": 1, "Kc cell number, rep 1": 1.50e6, "Kc cell number, rep 2": 1.52e6, "S2R+ cell number, rep 1": 1.17e6, "S2R+ cell number, rep 2": 1.24e6}
{"gene": "Cpr49Ad (Cuticular protein 49Ad)", "dsRNA no.": 1, "Kc cell number, rep 1": 1.56e6, "Kc cell number, rep 2": 1.56e6, "S2R+ cell number, rep 1": 1.19e6, "S2R+ cell number, rep 2": 1.33e6}

More results follow:
What is on record for CG34183?
Kc cell number, rep 1: 1.76e6; Kc cell number, rep 2: 1.83e6; S2R+ cell number, rep 1: 1.11e6; S2R+ cell number, rep 2: 1.24e6

With bun (bunched) #1, how do the results read?
Kc cell number, rep 1: 1.59e6; Kc cell number, rep 2: 1.67e6; S2R+ cell number, rep 1: 1.12e6; S2R+ cell number, rep 2: 1.26e6

With bun (bunched) #2, what was measured?
Kc cell number, rep 1: 1.58e6; Kc cell number, rep 2: 1.74e6; S2R+ cell number, rep 1: 1.13e6; S2R+ cell number, rep 2: 1.26e6

With bun (bunched) #3, how do the results read?
Kc cell number, rep 1: 1.18e6; Kc cell number, rep 2: 1.30e6; S2R+ cell number, rep 1: 6.54e5; S2R+ cell number, rep 2: 7.71e5

With CG17029, what does the deposit list?
Kc cell number, rep 1: 1.35e6; Kc cell number, rep 2: 1.44e6; S2R+ cell number, rep 1: 1.23e6; S2R+ cell number, rep 2: 1.31e6

What did the screen give for CG10051?
Kc cell number, rep 1: 1.47e6; Kc cell number, rep 2: 1.70e6; S2R+ cell number, rep 1: 1.20e6; S2R+ cell number, rep 2: 1.38e6

What is on record for Mob2 #1?
Kc cell number, rep 1: 1.49e6; Kc cell number, rep 2: 1.58e6; S2R+ cell number, rep 1: 8.68e5; S2R+ cell number, rep 2: 1.01e6

With Mob2 #2, what was measured?
Kc cell number, rep 1: 1.42e6; Kc cell number, rep 2: 1.55e6; S2R+ cell number, rep 1: 1.12e6; S2R+ cell number, rep 2: 1.27e6

How did the screen score Mob2 #3?
Kc cell number, rep 1: 1.37e6; Kc cell number, rep 2: 1.47e6; S2R+ cell number, rep 1: 1.05e6; S2R+ cell number, rep 2: 9.43e5

What did the screen give for CG11854?
Kc cell number, rep 1: 1.75e6; Kc cell number, rep 2: 1.71e6; S2R+ cell number, rep 1: 1.02e6; S2R+ cell number, rep 2: 1.16e6

For CG12194, what does the deposit list?
Kc cell number, rep 1: 1.56e6; Kc cell number, rep 2: 1.63e6; S2R+ cell number, rep 1: 1.26e6; S2R+ cell number, rep 2: 1.34e6

What did the screen give for CG42238?
Kc cell number, rep 1: 1.24e6; Kc cell number, rep 2: 1.34e6; S2R+ cell number, rep 1: 1.09e6; S2R+ cell number, rep 2: 1.02e6

With CG31233, what was measured?
Kc cell number, rep 1: 1.38e6; Kc cell number, rep 2: 1.34e6; S2R+ cell number, rep 1: 1.02e6; S2R+ cell number, rep 2: 1.10e6

For CG13465, how do the results read?
Kc cell number, rep 1: 1.30e6; Kc cell number, rep 2: 1.43e6; S2R+ cell number, rep 1: 1.22e6; S2R+ cell number, rep 2: 1.31e6

How did the screen score or (orange)?
Kc cell number, rep 1: 1.56e6; Kc cell number, rep 2: 1.69e6; S2R+ cell number, rep 1: 1.39e6; S2R+ cell number, rep 2: 1.48e6

Which result is listed for Timp (Tissue inhibitor of metalloproteases)?
Kc cell number, rep 1: 1.62e6; Kc cell number, rep 2: 1.65e6; S2R+ cell number, rep 1: 1.36e6; S2R+ cell number, rep 2: 1.40e6
